No constants are given. Whether binding was seen depends on the method and setting. Binding seen in cells or lysates may run through a third protein. Binding calls can cover weak binding; strength is not graded here.
Target: GST-UFM1 (UniProt P61960)
Test: pull-down

By UniProt entry, the sequences of proteins in these tests, tags left out. Where a name states a change or a piece, a line headed by the entry shows the natural chain unless it says otherwise.
UniProt P61960: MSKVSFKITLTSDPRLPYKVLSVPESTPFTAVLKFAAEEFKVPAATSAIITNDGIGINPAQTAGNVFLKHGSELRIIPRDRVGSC
UniProt Q9H9Q4: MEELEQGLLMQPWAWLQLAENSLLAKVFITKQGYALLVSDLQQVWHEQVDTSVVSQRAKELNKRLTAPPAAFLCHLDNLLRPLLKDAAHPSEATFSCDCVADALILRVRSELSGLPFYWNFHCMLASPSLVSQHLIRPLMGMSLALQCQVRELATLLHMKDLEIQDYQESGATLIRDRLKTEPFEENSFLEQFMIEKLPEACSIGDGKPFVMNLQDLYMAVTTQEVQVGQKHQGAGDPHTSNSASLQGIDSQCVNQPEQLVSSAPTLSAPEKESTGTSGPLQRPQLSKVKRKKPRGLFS

binding: binds
Substance: XLF mutated in residues 199-207 (from UniProt Q9H9Q4)
